# Data as given in PubChem BioAssay AID2685 (National Center for Advancing Translational Sciences (NCATS), 2010).
# This is one part of the list. These are further read-outs of the screen, such as a control signal, another cell line or another target. No call is given for them. The list favours compounds with an active or inconclusive main result. Words in brackets tell the shape of the fitted curve; partial curves, single points and poor fits give uncertain potencies.
# Test: qHTS Assay for Lipid Storage Modulators in Drosophila S3 Cells;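 for cell number change: cells counted by Cell Tracker Red CMTPX staining in the red channel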
# Details: BODIPY lipid droplet fluorescence, 18-24 h; for cell number change: measured here: cell count max response, cells fed with added oleic acid
# In short: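 Laser-scanning cytometry quantifies lipid droplet accumulation (500–530 nm total intensity; droplet/cell object ratio) in oleic acid-fed (400 uM added) Drosophila S3 cells treated with a concentration series. 20 uM Triacsin C defined 100% inhibition.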
# [1] = measured here: cell number channel AC50, cells fed with added oleic acid
# [2] = measured here: lipid fluorescence (Fed channel) AC50, cells fed with added oleic acid
smiles,measurement,setting,value
O=C(NCCCN1CCOCC1)c1ccc2c(c1)N(Cc1ccc(F)cc1)CCS2,cell number change,,31.2%
same,AC50,[1],"32.6 µM [rising, single point]"
same,AC50,[2],"2.31 µM [rising, partial curve]"
COc1ccc(C(=O)Nc2c(C)csc2C(=O)O)cc1,cell number change,,39.4%
same,AC50,[1],"14.6 µM [rising, partial curve, poor fit]"
same,AC50,[2],"16.4 µM [rising, partial curve]"
CC(C)(C)NC(=O)C(c1ccc(O)cc1)N(C(=O)CCC(=O)Nc1ccccn1)c1ccc(F)cc1 (stereo not drawn),cell number change,,6.09%
same,AC50,[1],"1.64 µM [rising, partial curve, poor fit]"
CCCOc1ccccc1-c1nc2c([nH]1)c(=O)[nH]c(=O)n2C,cell number change,,4.53%
same,AC50,[2],"1.16 µM [rising, partial curve]"
CNC(=O)N(O)C1N(/N=C/c2cccs2)C(=S)SC1(C)C (stereo not drawn),cell number change,,7.44%
same,AC50,[1],"0.146 µM [falling, full curve, poor fit]"
same,AC50,[2],"0.103 µM [falling, full curve, poor fit]"
CCC(C)[C@H](NC(=O)C1CCC(CNC(=O)[C@@H]2CCCN2C(=O)OC(C)(C)C)CC1)C(=O)O (stereo partly drawn),cell number change,,7.8%
same,AC50,[1],"6.51 µM [rising, single point]"
Cc1ccc(-n2c(SCC(N)=O)nnc2-c2ccccn2)cc1C,cell number change,,23%
same,AC50,[1],"0.58 µM [falling, single point]"
same,AC50,[2],"0.651 µM [falling, partial curve]"
O=C(O)C[C@@H](O)C(=O)O,cell number change,,-1.14%
same,AC50,[2],"0.92 µM [falling, full curve, poor fit]"
CC(C)c1ccc(NC(=O)[C@@H](C)NC(=O)[C@@H]2Cc3ccccc3CN2)cc1,cell number change,,-15.8%
Cc1cc(N2CCCCC2)nc(-c2ccc(Br)cc2)n1,cell number change,,44.9%
same,AC50,[1],"20.6 µM [rising, single point]"
same,AC50,[2],"16.4 µM [rising, single point]"
Cc1ccccc1NS(=O)(=O)c1nnc(NC(=O)c2ccccc2F)s1,cell number change,,2.59%
same,AC50,[2],"6.51 µM [rising, single point]"
Cc1ccccc1NC1=C(Cl)C(=O)N(C2CCCCC2)C1=O,cell number change,,-15.7%
Cc1onc(-c2ccccc2)c1C(=O)NCCN1CCOCC1,cell number change,,-4.27%
same,AC50,[2],"0.13 µM [falling, full curve, poor fit]"
O=C(CSc1nnc(-c2ccccc2F)o1)N1CCNC1=O,cell number change,,28.7%
same,AC50,[2],"0.146 µM [rising, full curve, poor fit]"
CC1CCN(C(=O)c2[nH]cnc2C(=O)Nc2cccc(Cl)c2)CC1,cell number change,,-25.8%
same,AC50,[2],"0.00461 µM [falling, full curve, poor fit]"
CN1CCc2c(sc(NC(=O)Cc3ccccc3)c2C#N)C1,cell number change,,18.2%
O=C(NCCCN1CCCC1=O)C(=O)NCC1OCCN1S(=O)(=O)c1ccc(Cl)cc1 (stereo not drawn),cell number change,,21.7%
same,AC50,[2],"20.6 µM [rising, single point]"
CSc1n[nH]c(NCc2cccs2)n1,cell number change,,-32.9%
same,AC50,[1],"1.03 µM [falling, full curve]"
same,AC50,[2],"0.651 µM [falling, full curve]"
O=C(CCS(=O)(=O)c1ccc(Br)s1)NC1CCCCCC1,cell number change,,43.2%
same,AC50,[1],"8.2 µM [rising, partial curve]"
Cc1ccccc1OCC(=O)Nc1cccc(S(=O)(=O)NC2=NCCC2)c1,cell number change,,-10.8%
same,AC50,[2],"0.164 µM [rising, full curve, poor fit]"
COC(=O)[C@@H](NC(=O)NCc1ccc(F)cc1)C(C)C,cell number change,,0.982%
same,AC50,[2],"6.51 µM [rising, full curve, poor fit]"
Cc1ncc(CO)c(/C=N/NC(=O)c2ccoc2C)c1O,cell number change,,-2.01%
CC1(C)C(=O)OC(c2ccc([N+](=O)[O-])cc2)C(C)(C)C1=O (stereo not drawn),cell number change,,38.9%
same,AC50,[1],"20.6 µM [rising, single point]"
Cc1cnc(NC(=O)CSc2nnc(C)n2N)s1,cell number change,,-24.4%
same,AC50,[1],"0.82 µM [falling, full curve, poor fit]"
same,AC50,[2],"3.26 µM [falling, full curve, poor fit]"
O=C(Nc1ccccc1)C1CC(=O)n2c(nc3ccccc32)N1 (stereo not drawn),AC50,[2],"0.92 µM [falling, full curve, poor fit]"
CC(C)NC(=O)Cn1cnc2c1c(=O)n(C)c(=O)n2C,cell number change,,2.89%
CC(C)OP(=O)(OC(C)C)C(Nc1ccccn1)c1ccc(F)cc1 (stereo not drawn),cell number change,,-8.19%
same,AC50,[2],"0.146 µM [falling, full curve, poor fit]"
COC(=O)c1cccc(Cn2cc([N+](=O)[O-])cn2)c1,cell number change,,7.16%
same,AC50,[1],"1.84 µM [rising, partial curve, poor fit]"
same,AC50,[2],"0.116 µM [rising, full curve, poor fit]"
OC(Cc1nc2ccccc2[nH]1)c1ccccc1Cl (stereo not drawn),AC50,[1],"0.731 µM [rising, single point]"
same,AC50,[2],"1.64 µM [rising, single point]"
Cc1ncc([N+](=O)[O-])n1Cc1ccccc1,cell number change,,-18%
same,AC50,[2],"0.0058 µM [falling, full curve, poor fit]"
O=C1CCCS(=O)(=O)c2ccccc21,cell number change,,3.58%
same,AC50,[2],"0.103 µM [falling, full curve, poor fit]"
COc1ccc(CCNC(=O)COC(=O)c2ccc(C)s2)cc1OC,cell number change,,-55.6%
same,AC50,[1],"8.2 µM [falling, partial curve, poor fit]"
same,AC50,[2],"1.84 µM [falling, full curve]"
COc1ccc(S(=O)(=O)NCCC(=O)NCc2cccs2)cc1,cell number change,,30.1%
same,AC50,[1],"32.6 µM [rising, single point]"
same,AC50,[2],"6.51 µM [rising, single point]"
CC1CCN(C2CCN(S(=O)(=O)c3ccc(C(F)(F)F)cc3)CC2)CC1,AC50,[1],"0.13 µM [rising, partial curve, poor fit]"
COc1ccccc1CCNC(=O)c1ccc(NC(=O)CC2SC(N3CCCC3)=NC2=O)cc1 (stereo not drawn),cell number change,,18.8%
same,AC50,[2],"4.11 µM [rising, single point]"
CC(C)(C)OC(=O)NCCc1nnc(SCC(=O)Nc2cccc(Cl)c2)o1,cell number change,,-14.3%
COC(=O)Cc1[nH]n(-c2ccccc2)c(=O)c1C=Nc1ccc(C)cc1,cell number change,,12.1%
same,AC50,[1],"0.00411 µM [rising, full curve, poor fit]"
same,AC50,[2],"0.0146 µM [rising, full curve, poor fit]"
O=C1/C(=C/c2cccc(Cl)c2)SC(=S)N1CCC(=O)N1CCCCC1CCO (stereo not drawn),cell number change,,2.36%
same,AC50,[2],"29.1 µM [falling, single point]"
COc1ccccc1CC(=O)NN1C(=O)NC2(CCC(C)CC2)C1=O (stereo not drawn),cell number change,,-25.7%
Cc1ccc2nc(SCC(=O)N(CC(C)C)c3c(N)n(CC(C)C)c(=O)[nH]c3=O)[nH]c2c1,cell number change,,51.2%
same,AC50,[1],"9.2 µM [rising, partial curve, poor fit]"
O=C(O)c1cc2cc(Oc3ccccc3)ccc2[nH]1,cell number change,,29.8%
same,AC50,[2],"29.1 µM [rising, single point]"
COC(=O)c1ccc(C(c2c(N)n(Cc3ccccc3)c(=O)n(C)c2=O)N2CCOCC2)cc1 (stereo not drawn),cell number change,,-0.452%
same,AC50,[2],"6.51 µM [rising, single point]"
COc1ccc(C(=O)N2CCN(c3ccccc3)CC2)cc1S(=O)(=O)NC1CC1,cell number change,,-1.81%
same,AC50,[2],"3.66 µM [rising, partial curve]"
CC(=O)Nc1ccc(O)cc1[N+](=O)[O-],cell number change,,-0.265%
same,AC50,[1],"6.51 µM [falling, single point]"
same,AC50,[2],"6.51 µM [falling, partial curve]"
Cn1nc(C(=O)N2CCN(S(=O)(=O)/C=C/c3ccccc3)CC2)c2ccccc2c1=O,cell number change,,0.711%
same,AC50,[2],"13 µM [rising, single point]"
O=C(N/N=C/c1cn(-c2ccccc2)nc1-c1ccc(F)cc1)c1ccc(Br)o1,cell number change,,-29.6%
same,AC50,[2],"0.651 µM [rising, single point]"
FC(F)(F)c1cccc(-c2nc3nc(Cl)c(Cl)nc3[nH]2)c1,cell number change,,-61.1%
same,AC50,[1],"9.2 µM [falling, partial curve]"
same,AC50,[2],"8.2 µM [falling, partial curve]"
COc1ccc(C(=O)NCC(=O)N2CCCC(C(F)(F)F)C2)cc1OC (stereo not drawn),cell number change,,-32.6%
same,AC50,[1],"16.4 µM [falling, single point]"
same,AC50,[2],"14.6 µM [falling, partial curve, poor fit]"
Cc1ccc(S(=O)c2ccc(C)cc2)cc1,cell number change,,10.7%
O=C(N/N=C/c1ccc2c(c1)OCO2)C(=O)N1CCCC1,cell number change,,6.54%
same,AC50,[2],"0.82 µM [rising, single point]"
CCCn1nc(CC(=O)O)c2ccccc2c1=O,cell number change,,28.6%
same,AC50,[2],"18.4 µM [rising, single point]"
CNC(=O)c1nnn(-c2ccccc2)c1C(=O)NC,cell number change,,2.17%
same,AC50,[2],"0.00461 µM [falling, full curve, poor fit]"
COC(=O)c1ccc(OCC(=O)Nc2ccsc2C(=O)OC)cc1,AC50,[2],"6.51 µM [rising, single point]"
COc1ccc(CCN(C)C(=O)c2ccc(OCC(=O)N3CCOCC3)c(OC)c2)cc1OC,cell number change,,-9.15%
same,AC50,[2],"14.6 µM [falling, single point]"
CCCN(C(=O)CSc1n[nH]c(-c2ccc(OC)cc2)n1)c1c(N)n(Cc2ccccc2)c(=O)[nH]c1=O,cell number change,,75.6%
same,AC50,[1],"29.1 µM [rising, single point]"
same,AC50,[2],"0.206 µM [rising, full curve, poor fit]"
CCOC(=O)CNC(=O)CSc1nnc(NC(=O)c2ccccc2Cl)s1,cell number change,,138%
same,AC50,[2],"29.1 µM [rising, single point]"
Cc1cccc(NC(=O)Cn2c(O)c(N=NC(=O)c3ccncc3)c3ccccc32)c1,cell number change,,49.6%
same,AC50,[1],"2.31 µM [rising, full curve]"

# Some of the entries above in a different format:
smiles | measurement | setting | value
Cc1ccccc1NS(=O)(=O)c1nnc(NC(=O)c2ccccc2F)s1 | cell number change |  | 2.59%
O=C(N/N=C/c1cn(-c2ccccc2)nc1-c1ccc(F)cc1)c1ccc(Br)o1 | cell number change |  | -29.6%

# 2 records drawn at random from the list so far, as already listed:
smiles,measurement,setting,value
COC(=O)c1cccc(Cn2cc([N+](=O)[O-])cn2)c1,AC50,[2],"0.116 µM [rising, full curve, poor fit]"
COC(=O)Cc1[nH]n(-c2ccccc2)c(=O)c1C=Nc1ccc(C)cc1,AC50,[1],"0.00411 µM [rising, full curve, poor fit]"

# Another view of some results above.
smiles | measurement | setting | value
O=C(NCCCN1CCOCC1)c1ccc2c(c1)N(Cc1ccc(F)cc1)CCS2 | AC50 | [2] | 2.31 µM [rising, partial curve]
Cc1ccccc1NS(=O)(=O)c1nnc(NC(=O)c2ccccc2F)s1 | AC50 | [2] | 6.51 µM [rising, single point]
CSc1n[nH]c(NCc2cccs2)n1 | AC50 | [1] | 1.03 µM [falling, full curve]
CC1CCN(C2CCN(S(=O)(=O)c3ccc(C(F)(F)F)cc3)CC2)CC1 | AC50 | [1] | 0.13 µM [rising, partial curve, poor fit]
